The record followed here is patent US20210253734A1.

No constants are given. Whether binding was seen depends on the method and setting. Some binding calls cover weakened binding; strength is not graded here.

This test concerns the target T1, NS-SPIK (Normal Secreted serine protease inhibitor Kazal), from the medium of pancreatic cells (human) (UniProt P00995).
T1 sequence: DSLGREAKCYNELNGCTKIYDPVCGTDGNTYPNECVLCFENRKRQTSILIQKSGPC
Briefly: method not described.

B1: monoclonal antibody IM-S14 (antibody, V domains shown)
VH: EVKLVESGGGLVKPGGSLKVSCAASGFTFSSNAMSWVRQTPEKRLEWVASISSGGRIYYPDSVKGRFTISRDNARNILHLQMSSLRSEDTAMYYCARWVIYYDYDGAWFPYWGQGTLVTVSA
VL: NIVLTQSPASLAVSLGQRATISCRTSESVDSYGDSFMHWYQQKPGQPPKLLIYLASNLESGVPARFSGSGSRTDFTLTIDPVEADDAATYYCQQNNEDPTFGGGTKLEIK
For B1, the binding entry is recorded as “binds”.
